Reference: paper PMC12607686
Positions count from the first letter of the chain named. No constants are given. Whether binding was seen depends on the method and setting. Binding seen in cells or lysates may run through a third protein. Some results given as binding are weak or reduced against the parent protein; the word gives no strength. Where a sequence is shown, tags or fusion partners need not be part of it.

How the values were obtained:
[1] = target: T1, 293XL-hTLR9-YFP-flag Y870F (human) (UniProt Q9NR96); experiment: co-IP; 293XL-hTLR9-YFP-flag Wt, Y870F, Y980F cells treated with CpG ODN 15 min (Fig. 6D) or 30 min (Fig. 6E); immunoprecipitated with anti-flag for TLR9, immunoblot anti-Syk, anti-EGFR
T1 sequence: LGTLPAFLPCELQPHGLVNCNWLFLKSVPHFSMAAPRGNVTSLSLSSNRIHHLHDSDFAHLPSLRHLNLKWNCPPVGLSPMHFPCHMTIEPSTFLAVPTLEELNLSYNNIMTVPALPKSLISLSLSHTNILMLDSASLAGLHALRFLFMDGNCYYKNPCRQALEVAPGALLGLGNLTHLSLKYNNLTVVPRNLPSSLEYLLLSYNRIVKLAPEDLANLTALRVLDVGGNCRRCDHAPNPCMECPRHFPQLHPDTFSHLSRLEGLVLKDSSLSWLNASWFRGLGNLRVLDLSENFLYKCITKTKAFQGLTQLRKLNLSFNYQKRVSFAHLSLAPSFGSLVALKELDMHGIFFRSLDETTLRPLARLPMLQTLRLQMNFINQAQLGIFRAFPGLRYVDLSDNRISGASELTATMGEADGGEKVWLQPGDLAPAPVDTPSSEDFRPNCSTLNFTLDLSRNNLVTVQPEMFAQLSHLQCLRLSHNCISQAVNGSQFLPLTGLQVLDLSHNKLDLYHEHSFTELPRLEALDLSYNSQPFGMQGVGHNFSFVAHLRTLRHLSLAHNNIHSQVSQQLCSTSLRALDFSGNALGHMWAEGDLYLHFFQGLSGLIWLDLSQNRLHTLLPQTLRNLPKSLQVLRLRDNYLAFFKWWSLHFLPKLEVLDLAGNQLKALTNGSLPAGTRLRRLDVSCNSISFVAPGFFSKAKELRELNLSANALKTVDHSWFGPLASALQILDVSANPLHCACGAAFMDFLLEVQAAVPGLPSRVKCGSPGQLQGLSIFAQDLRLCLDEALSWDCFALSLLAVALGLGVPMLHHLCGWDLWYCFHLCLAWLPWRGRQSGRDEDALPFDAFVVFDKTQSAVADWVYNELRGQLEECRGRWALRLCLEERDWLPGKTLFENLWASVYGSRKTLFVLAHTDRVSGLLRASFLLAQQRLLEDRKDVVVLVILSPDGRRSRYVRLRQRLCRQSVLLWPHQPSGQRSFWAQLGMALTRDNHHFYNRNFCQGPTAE

[2] = target: T2, 293XL-hTLR9-YFP-flag Y980F (human) (UniProt Q9NR96); experiment: as above
T2 sequence: T1 sequence with F845Y, Y955F

binding [1]: binds | binding [2]: binds
Substance: EGFR (from UniProt P00533 25-1210) (receptor)
